Among the data in publication PMC10905675, “INX-315, a Selective CDK2 Inhibitor, Induces Cell Cycle Arrest and Senescence in Solid Tumors” (Cancer Discovery, 2023) are IC50 values, retold here.

This assay deals with Hs68. In words: CellTiter Glo viability assay. The settings on record: benign human fibroblast cell line Hs68. It counts as cell-based. How it is done: An exception to this is MCF7PDRCl5-1 cells which were first cultured for 5 days without palbociclib then plated as described. MCF7PDRCl5-1 cells were treated with either a dose curve of the indicated CDK4/6i or a dose curve of INX-315 + 1 µmol/L of the indicated CDK4/6i. Cell viability was determined using the CellTiter-Glo assay (Promega, G9241) following manufacturer's instructions. Plates were processed on either BioTek Synergy2 multi-mode (Agilent) or ClarioSTAR (BMG Labtech) plate readers. T47D and MCF7 cells were seeded into […] plates using BioTek 406 (Aglient) and treated with a ten-point dose concentration from 10 µmol/L to 0.3 nmol/L of INX-315 for 2× doubling times. Plates were fixed with 4% PFA and stained with Rhodamine-Phalloidin (Bio-Trend, 00027) and DAPI (5 mg/mL, Invitrogen, catalog no. D1306). Plates were imaged using CellInsight CX7 LZR and DAPI-positive cells were counted using Thermo Fisher Scientific HCS Studio Cell Analysis Software.

What is called IC50 is the concentration that inhibits the measured activity by half. In the case of `CCc1cnn2c(NCc3ccc[n+]([O-])c3)cc(N3CCCC[C@H]3CCO)nc12` [dinaciclib], the IC50 stood at 7 nM.
